This assay deals with L1210 leukemia ip in BDF1 mice, survival T/C. The experiment in a line: NCI In Vivo Anticancer Drug Screen. Data for tumor model L1210 Leukemia (intraperitoneal) in B6D2F1 (BDF1) mice. The following applies: T/C endpoint: mean survival time, higher T/C = longer survival.
The mark [1] stands for this setting: dose: 100.0 mg/kg/injection, schedule: Q01DX009 (ip), vehicle: saline with Tween-80.
Setting [2] is: dose: 200.0 mg/kg/injection, schedule: Q04DX003 (ip), vehicle: saline with Tween-80.
[3] abbreviates: dose: 400.0 mg/kg/injection, schedule: Q04DX003 (ip), vehicle: saline with Tween-80.
[4] abbreviates: dose: 400.0 mg/kg/injection, schedule: Q04DX002 (ip), vehicle: carboxymethylcellulose (CMC).
Where [5] appears, read: dose: 200.0 mg/kg/injection, schedule: Q01DX009 (ip), vehicle: saline.
[6] abbreviates: dose: 400.0 mg/kg/injection, schedule: Q01DX009 (ip), vehicle: saline.
Where [7] appears, read: dose: 200.0 mg/kg/injection, schedule: Q01DX001 (ip), vehicle: saline.
Setting [8] is: dose: 400.0 mg/kg/injection, schedule: Q01DX009 (ip), vehicle: Klucel (hydroxypropylcellulose) (HPC).
Setting [9] is: dose: 100.0 mg/kg/injection, schedule: Q04DX003 (ip), vehicle: saline with Tween-80.
Where [10] appears, read: dose: 400.0 mg/kg/injection, schedule: Q01DX001 (ip), vehicle: saline.

The list is a part of this screen's results and no random one: it gathers tests that were run many times, whatever their T/C, doses with no T/C, and many T/C values between a quarter and a half above the control. Other doses and runs of a compound stand elsewhere. T/C: endpoint of the treated group in % of that of the vehicle group. Some entries give survivors of the animals treated and no T/C: the source holds a T/C of zero for them, seemingly a mark for toxic or unscored doses. Some survivor counts are full or nearly so, which does not show that the dose was tolerated: survival well below the control is almost never listed, so the zero probably covers shortened survival too. Counts of survivors are from the toxicity check (mostly the fifth day) where no day follows; animals may have died later. Schedules are NCI's codes, taken here to give the interval after Q, in days (D) or hours (H), and the number of doses after X. Some entries were tested several times; the results are listed from low to high. Where survival is the endpoint, the PubChem record calls one and a half times the control and up active, and a quarter to a half above the control has no call in these data; cut-offs in other NCI protocols can differ.

Regarding `O=C(CCN1CC1)Nc1cccc(NC(=O)CCN2CC2)c1`, the T/C reads like this: (dose: 5.0 mg/kg/injection, schedule: Q01DX001 (ip), vehicle: Klucel (hydroxypropylcellulose) (HPC)) 128 % of control; (dose: 10.0 mg/kg/injection, schedule: Q01DX001 (ip), vehicle: Klucel (hydroxypropylcellulose) (HPC)) 147 % of control; (dose: 20.0 mg/kg/injection, schedule: Q01DX001 (ip), vehicle: Klucel (hydroxypropylcellulose) (HPC)) 141 % of control. Further, the survivor count (dose: 80.0 mg/kg/injection, schedule: Q01DX001 (ip), vehicle: Klucel (hydroxypropylcellulose) (HPC)) is 5 of 6.

For `OC1CC[N-]CC1.OC1CC[N-]CC1.[Cl][Pt+2]([Cl])([Cl])[Cl]`, the survivor count reads like this: under setting [1], 3 of 6; under setting [2], 3 of 6; under setting [3], 1 of 6.

Take `ClCCC[S][Pb]([c]1ccccc1)([c]1ccccc1)[c]1ccccc1`: for the setting “dose: 100.0 mg/kg/injection, schedule: Q04DX002 (sc), vehicle: olive oil, sesame oil, peanut oil”, the survivor count is 2 of 3.

With `CC(C)CCc1c(N)nc(N)nc1N`, the survivor count reads like this: (dose: 100.0 mg/kg/injection, schedule: Q04DX003 (ip), vehicle: Klucel (hydroxypropylcellulose) (HPC)) 2 of 6; (dose: 200.0 mg/kg/injection, schedule: Q04DX003 (ip), vehicle: Klucel (hydroxypropylcellulose) (HPC)) 0 of 6; (dose: 400.0 mg/kg/injection, schedule: Q04DX003 (ip), vehicle: Klucel (hydroxypropylcellulose) (HPC)) 0 of 6.

With `O=S(=O)(F)c1ccc(C[P+](c2ccccc2)(c2ccccc2)c2ccccc2)cc1Cl`, the survivor count is 0 of 6 and 1 of 3 (dose: 100.0 mg/kg/injection, schedule: Q01DX001 (ip), vehicle: carboxymethylcellulose (CMC)); 0 of 3 and 0 of 6 (dose: 200.0 mg/kg/injection, schedule: Q01DX001 (ip), vehicle: carboxymethylcellulose (CMC)); 0 of 3 and 1 of 6 (dose: 200.0 mg/kg/injection, schedule: Q04DX002 (ip), vehicle: carboxymethylcellulose (CMC)); 0 of 3 and 0 of 6 under setting [4].

Turning to `N=C(N)c1ccc(OCCCCOc2ccc(NC(=O)Nc3ccc(S(=O)(=O)F)cc3Cl)cc2)cc1`, under “dose: 50.0 mg/kg/injection, schedule: Q01DX001 (ip), vehicle: saline with Tween-80”, the survivor count was 6 of 6.

Turning to `[CH3][Sn]1([CH3])[CH2]CCC[CH2]1`, the survivor count reads like this: (dose: 100.0 mg/kg/injection, schedule: Q01DX009 (ip), vehicle: saline) 0 of 3; under setting [5], 0 of 3; under setting [6], 0 of 3.

As for `CC(=O)OCC(=O)c1cc(OC(C)=O)c(OC(C)=O)c(OC(C)=O)c1`, under setting [7], the survivor count is recorded as 2 of 4.

For the compound `CC(C)C(C#N)(CCCCN1CCCC1)c1cccc2ccccc12` (stereo not given), the survivor count was 4 of 6 under setting [2] and 0 of 6 under setting [3].

In the case of `CCCC(=O)Nc1ccc(N=Nc2ccccc2)cc1`, the survivor count under setting [8] is 4 of 6.

For `CCCCOP(=O)(/C=C\c1ccccn1)OCCCC`, the survivor count under setting [4] was 1 of 3 and 3 of 6.

For `O=C(/C(=C\Cl)CBr)c1ccccc1`, the survivor count is listed as 4 of 6 under setting [9], 2 of 6 under setting [2] and 0 of 6 under setting [3].

For the compound `CCOC(=O)C(C)(O)C(C)(Cl)c1ccccc1` (stereo not given), the T/C (dose: 100.0 mg/kg/injection, schedule: Q04DX002 (ip), vehicle: saline) is 125 and 134 % of control.

For the compound `O=C(CS)CS`, the survivor count is, setting by setting: (dose: 100.0 mg/kg/injection, schedule: Q01DX009 (ip), vehicle: water) 3 of 6; (dose: 100.0 mg/kg/injection, schedule: Q04DX003 (ip), vehicle: water) 5 of 6; (dose: 200.0 mg/kg/injection, schedule: Q01DX009 (ip), vehicle: water) 0 of 6; (dose: 200.0 mg/kg/injection, schedule: Q04DX003 (ip), vehicle: water) 1 of 6; (dose: 400.0 mg/kg/injection, schedule: Q04DX003 (ip), vehicle: water) 0 of 6.

Turning to `COc1ccc(C)c(CN(C)C)c1`, the survivor count by setting is: under setting [7], 2 of 4; under setting [10], 0 of 4.

Consider `CC(=O)N(CCCc1ccccc1)C(C)(C)C`, for which the survivor count under setting [5] is recorded as 0 of 6 and the survivor count under setting [10] is listed as 0 of 6.

In the case of `Nc1c(Cl)cc(S(N)(=O)=O)cc1Cl`, the survivor count (dose: 400.0 mg/kg/injection, schedule: Q01DX009 (ip), vehicle: other) is given as 3 of 6.

On to `CCCCCCCCCCCCN1CCCC(O)C1` (stereo not given), for which the survivor count under setting [3] is 0 of 6.

`CC(C)(C)C1CCC(O)C(Cl)C1` (stereo not given): under setting [6], the survivor count is 1 of 6.

In the case of `CCOC1c2ccccc2-c2ccccc2N1C(=O)c1ccccc1` (stereo not given), the survivor count under setting [1] is 0 of 6; the survivor count under setting [9] is reported as 6 of 6; the survivor count (dose: 200.0 mg/kg/injection, schedule: Q01DX009 (ip), vehicle: saline with Tween-80) was 6 of 6; the survivor count (dose: 400.0 mg/kg/injection, schedule: Q01DX009 (ip), vehicle: saline with Tween-80) is 6 of 6.

For the compound `c1ccc2c(c1)CCc1ccccc1CN(CCNC1=NCCN1)C2`, the survivor count is 0 of 6 (dose: 100.0 mg/kg/injection, schedule: Q01DX009 (ip), vehicle: Klucel (hydroxypropylcellulose) (HPC)); 0 of 6 (dose: 200.0 mg/kg/injection, schedule: Q01DX009 (ip), vehicle: Klucel (hydroxypropylcellulose) (HPC)); 0 of 6 under setting [8].

Consider `O=[N+]([O-])c1cc([N+](=O)[O-])c(Br)cc1F`, for which the survivor count is, setting by setting: (dose: 10.0 mg/kg/injection, schedule: Q01DX009 (ip), vehicle: Klucel (hydroxypropylcellulose) (HPC)) 6 of 6; (dose: 100.0 mg/kg/injection, schedule: Q04DX002 (ip), vehicle: Klucel (hydroxypropylcellulose) (HPC)) 0 of 3; (dose: 200.0 mg/kg/injection, schedule: Q04DX002 (ip), vehicle: Klucel (hydroxypropylcellulose) (HPC)) 0 of 3; (dose: 400.0 mg/kg/injection, schedule: Q04DX002 (ip), vehicle: Klucel (hydroxypropylcellulose) (HPC)) 0 of 3.

For `Cc1ccccc1N1CCN(CCC(=O)c2cc3ccccc3o2)CC1`, the survivor count runs as follows: (dose: 38.0 mg/kg/injection, schedule: Q04DX003 (ip), vehicle: saline with Tween-80) 3 of 5; (dose: 75.0 mg/kg/injection, schedule: Q01DX001 (ip), vehicle: saline with Tween-80) 0 of 6.

`O=C1NCCN1c1cccc([N+](=O)[O-])c1`: the survivor count runs as follows: (dose: 200.0 mg/kg/injection, schedule: Q01DX001 (ip), vehicle: Klucel (hydroxypropylcellulose) (HPC)) 2 of 6; (dose: 400.0 mg/kg/injection, schedule: Q01DX001 (ip), vehicle: Klucel (hydroxypropylcellulose) (HPC)) 1 of 6.

The values are drawn from PubChem BioAssay AID248 (DTP/NCI, 2004).
